Test results published in the supplement of paper PMC4604168 (melanoma cell lines).
The other results are listed elsewhere or left out. Repeats are few or missing, and single values can be far off.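 Cells were imaged in 1,536-well plates, and nuclei stained with an antibody against cleaved PARP were counted against all DNA-stained nuclei to give the apoptosis fraction. Screening doses were chosen to leave most cells alive, and resting and induced cleaved-PARP levels differ strongly between cell lines.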

Columns and labels:
Test in all cases: cleaved PARP positive nuclei fraction relative to DMSO control; melanoma cells; higher = more apoptosis
Conditions in all cases: library dose: low library concentration; 72 h
[1] = system: 501Mel
[2] = system: A101D
[3] = system: A2058
[4] = system: C32
[5] = system: CBRC008 (line from a melanoma biopsy)
[6] = system: CBRC014 (line from a melanoma biopsy)
[7] = system: CBRC016 (line from a melanoma biopsy)
[8] = system: CBRC017 (line from a melanoma biopsy)
[9] = system: COLO792
[10] = system: COLO800
[11] = system: COLO829
[12] = system: G361
[13] = system: IPC-298
[14] = system: IST-MEL1
[15] = system: LB2518-MEL
[16] = system: LOXIMVI
[17] = system: A375
[18] = system: CBRC034 (line from a melanoma biopsy)
[19] = system: MEL-HO

| SMILES | cleaved PARP positive nuclei fraction [1] [%] | cleaved PARP positive nuclei fraction [2] [%] | cleaved PARP positive nuclei fraction [3] [%] | cleaved PARP positive nuclei fraction [4] [%] | cleaved PARP positive nuclei fraction [5] [%] | cleaved PARP positive nuclei fraction [6] [%] | cleaved PARP positive nuclei fraction [7] [%] | cleaved PARP positive nuclei fraction [8] [%] | cleaved PARP positive nuclei fraction [9] [%] | cleaved PARP positive nuclei fraction [10] [%] | cleaved PARP positive nuclei fraction [11] [%] | cleaved PARP positive nuclei fraction [12] [%] | cleaved PARP positive nuclei fraction [13] [%] | cleaved PARP positive nuclei fraction [14] [%] | cleaved PARP positive nuclei fraction [15] [%] | cleaved PARP positive nuclei fraction [16] [%] | cleaved PARP positive nuclei fraction [17] [%] | cleaved PARP positive nuclei fraction [18] [%] | cleaved PARP positive nuclei fraction [19] [%] |
| --- | --- | --- | --- | --- | --- | --- | --- | --- | --- | --- | --- | --- | --- | --- | --- | --- | --- | --- | --- |
| O=C(O)[C@@H]1[O][Sb](=[O])([O][Sb]2(=[O])[O][C@H]([C@H](O)CO)[C@H](O)[C@H](C(=O)O)[O]2)[O][C@H]([C@H](O)CO)[C@@H]1O (stereo partly specified) [stibogluconate] + O=c1cc(-c2cccc3c2Sc2ccccc2S3)oc(N2CCOCC2)c1 [KU55933] (first compound 2 µM, partner dose 1 µM) | 70.2 | 27.9 | 84.2 | 169 | 48.3 | 122 | 24.3 | 91.1 | 81.3 | 131 | 50.9 | 127 | 93.4 | 28.7 | 135 | 48.4 | – | – | – |
| Nc1nc(F)nc2c1ncn2[C@@H]1O[C@H](CO)[C@@H](O)[C@@H]1O [fludarabine] + CC(C)CCN1c2nc(Nc3cc(F)c(O)c(F)c3)ncc2N(C)C(=O)C1C [BID1870] (first compound 0.2 µM, partner dose 0.2 µM) | 1110 | 22.3 | 40.4 | 198 | 102 | 115 | 561 | 75.1 | 20.7 | 61.5 | 75.2 | 167 | 102 | 168 | 70.9 | 78.6 | – | – | – |
| Nc1ccn([C@@H]2O[C@H](CO)[C@@H](O)C2(F)F)c(=O)n1 [gemcitabine] + O=C(O)C(=O)Nc1sc2c(c1C(=O)O)CCNC2 [TCS401] (first compound 0.0004 µM, partner dose 1.66667 µM) | 33.8 | 43.3 | 125 | 80.7 | 227 | 129 | 158 | 122 | 149 | 149 | 118 | 75.8 | 70 | 143 | 80.7 | 81.3 | – | – | – |
| CS(=O)(=O)CCNCc1ccc(-c2ccc3ncnc(Nc4ccc(OCc5cccc(F)c5)c(Cl)c4)c3c2)o1 [lapatinib] + O=S(=O)(c1ccccc1)N(CC(F)(F)F)c1ccc(C(O)(C(F)(F)F)C(F)(F)F)cc1 [T0901317] (first compound 0.8 µM, partner dose 1.4 µM) | 207 | 45.4 | 23.3 | 33.8 | 64 | 114 | 35.9 | 98.9 | 100 | 145 | 86.7 | 57.8 | 99.8 | 116 | 138 | 57.2 | – | – | – |
| CCCS(=O)(=O)Nc1ccc(F)c(C(=O)c2c[nH]c3ncc(Cl)cc23)c1F + COC(=O)c1sccc1S(=O)(=O)Nc1ccc(Nc2ccccc2)cc1OC [GSK0660] (first compound 0.08 µM, partner dose 1 µM) | 60.7 | 81.5 | 260 | 91.2 | 86.9 | 430 | 223 | 106 | 52.2 | 80.6 | 85.1 | 193 | 168 | 76.9 | 39.6 | 90.3 | – | – | – |
| Cn1c(=O)n(-c2ccc(C(C)(C)C#N)cc2)c2c3cc(-c4cnc5ccccc5c4)ccc3ncc21 + CCN(CC)CCCCNc1ncc2cc(-c3cc(OC)cc(OC)c3)c(NC(=O)NC(C)(C)C)nc2n1 [PD173074] (first compound 0.004 µM, partner dose 0.1 µM) | 84.9 | 9.3 | 115 | 154 | 90 | 95.2 | 71.6 | 178 | 194 | 197 | 90.8 | 125 | 44.1 | 76.7 | 66.9 | 165 | – | – | – |
| C=C(c1ccc(C(=O)O)cc1)c1cc2c(cc1C)C(C)(C)CCC2(C)C [Bexarotene] + C#Cc1cccc(Nc2ncnc3cc(OCCOC)c(OCCOC)cc23)c1 [erlotinib] (first compound 2 µM, partner dose 0.8 µM) | 96.6 | 108 | 121 | 365 | 114 | 98.1 | 62 | 132 | 142 | 60.5 | 155 | 72.8 | 91 | 133 | 102 | 87.7 | 118 | 64.9 | 187 |
| CC(C)C[C@H](NC(=O)[C@H](Cc1ccccc1)NC(=O)c1cnccn1)B(O)O [Bortezomib] + N#Cc1c(O)c2c(-c3ccc(-c4ccccc4O)cc3)csc2[nH]c1=O [A769662] (first compound 0.001 µM, partner dose 2 µM) | 91.5 | 154 | 91.1 | 92.6 | 1340 | 194 | 135 | 445 | 73.8 | 46.9 | 267 | 1110 | 98.8 | 171 | 300 | 179 | – | – | – |
